Data on one molecule can be found in patent publication US20080039384A1.

Results are given in words; binding and its absence hold for the method and conditions named. Some binding calls cover weakened binding; strength is not graded here.

This test deals with 16K hPRL (16 kDa N-terminal fragment of human prolactin) (human) (UniProt P01236). The experiment in a line: Superose 12 size exclusion chromatography in native conditions (major peak at app. M.M. 46700 against calculated M.M. 15900) and SDS-PAGE with or without beta-mercaptoethanol; non-covalent self-association.

B1: 16K hPRL (16 kDa N-terminal fragment of human prolactin) (protein)
chain: LPICPGGAARCQVTLRDLFDRAVVLSHYIHNLSSEMFSEFDKRYTHGRGFITKAINSCHTSSLATPEDKEQAQQMNQKDFLSLIVSILRSWNEPLYHLVTEVRGMQEAPEAILSKAVEIEEQTKRLLEGMELIVSQVHP
As for B1, the binding result is given as “binds”.
